Data on 23 molecules can be found in PubChem BioAssay AID296 (DTP/NCI, 2004).

The list shows only some results of the screen, not a fair sample: it gathers tests that were run many times, whatever their T/C, doses with no T/C, and many T/C values between a quarter and a half above the control. Other doses and runs of a compound stand elsewhere. T/C gives the treated animals as a percentage of the vehicle group. Schedule codes are those of the source, read here as Q, the interval in days (D) or hours (H), X, the number of doses. Some doses were run more than once; the results are listed from low to high. Some T/C values are followed by the survivors on the day toxicity was checked, most often the fifth; where none is given, no animal had died by that day. Some entries give survivors of the animals treated and no T/C: the source holds a T/C of zero for them, seemingly a mark for toxic or unscored doses. Survivors were counted at the toxicity check, usually on the fifth day, unless a day is given; later deaths do not show.

This assay deals with MX-1 breast xenograft, nude mice, tumor weight T/C. In words: NCI In Vivo Anticancer Drug Screen. Data for tumor model Human Mammary Carcinoma MX-1 Xenograft (intrarenal inoculation) in NU/NU Swiss (nude) mice. The conditions noted are these: T/C endpoint: mean tumor weight change, higher T/C = larger tumour; for T/C: evaluated on day 11. A digest of the protocol: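 Antitumour effect measured in vivo against vehicle controls, expressed as T/C.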
(In general: A xenograft is tissue or cells of one species grown in another, often human tumour cells in immunodeficient mice.)

Where [1] appears, read: dose: 25.0 micrograms/kg/injection, schedule: Q01DX010 (sc), vehicle: saline + alcohol.
Setting [2] is: dose: 100.0 micrograms/kg/injection, schedule: Q01DX010 (sc), vehicle: saline + alcohol.
Setting [3] is: dose: 200.0 micrograms/kg/injection, schedule: Q01DX010 (sc), vehicle: saline + alcohol.

Take `C[n+]1c(-c2cccc3ccccc23)c2cc(N)ccc2c2ccccc21`: the T/C (dose: 24.0 mg/kg/injection, schedule: Q04DX003 (sc), vehicle: saline) was 137 % of control. In addition, under “dose: 96.0 mg/kg/injection, schedule: Q04DX003 (sc), vehicle: saline”, the survivor count was 0 of 6 on day 11.
Regarding `CC(=O)OCC1OC(n2ncc(=O)[nH]c2=O)C(OC(C)=O)C1OC(C)=O` (centres undefined), the T/C (dose: 1200.0 mg/kg/injection, schedule: Q04DX003 (sc), vehicle: suspension in saline) was 137 % of control.
With `O=c1n(CC2CO2)c(=O)n(CC2CO2)n1CC1CO1` (centres undefined), the survivor count (dose: 75.0 mg/kg/injection, schedule: Q04DX003 (sc), vehicle: saline) was 0 of 6 on day 11.
As for `CN(C)CCCNc1c2ccccc2nc2cccc([N+](=O)[O-])c12`, the survivor count is recorded as 0 of 6 on day 11 (dose: 0.75 mg/kg/injection, schedule: Q04DX003 (sc), vehicle: saline); 0 of 6 on day 11 (dose: 1.5 mg/kg/injection, schedule: Q04DX003 (sc), vehicle: saline); 0 of 6 on day 11 (dose: 3.0 mg/kg/injection, schedule: Q04DX003 (sc), vehicle: saline).
For the molecule `CC(=O)OC(C)C1C2=C(C(=O)CC1(C)O)C(=O)c1c(ccc(-c3ccc4c(c3O)C(=O)C3=C(C4=O)C(C(C)OC(C)=O)C(C)(O)CC3=O)c1O)C2=O` (centres undefined), the T/C (dose: 15.0 mg/kg/injection, schedule: Q04DX003 (sc), vehicle: saline with Tween-80) is 137 % of control.
Take `Cc1c(N)nc(C(CC(N)=O)NCC(N)C(N)=O)nc1C(=O)NC(C(=O)NC(C)C(O)CC(=O)NC(C(=O)NC(OC1OC(C)C(N)C(O)C1O)C(O)c1nc(-c2nc(C(=O)NCCCC(N)CC(=O)NCCCNCCCCN)cs2)cs1)C(C)O)C(OC1OC(CO)C(O)C(O)C1OC1OC(CO)C(O)C(OC(N)=O)C1O)c1cnc[nH]1` (centres undefined): the survivor count is on record as 0 of 3 on day 11 (dose: 32.0 mg/kg/injection, schedule: Q04DX003 (sc), vehicle: saline) and 0 of 3 on day 11 (dose: 64.0 mg/kg/injection, schedule: Q04DX003 (sc), vehicle: saline).
As to `COc1cc2cc(c1Cl)N(C)C(=O)CC(OC(=O)CC(C)C)C1(C)OC1C(C)C1CC(O)(NC(=O)O1)C(OC)/C=C/C=C(C)C2` (centres undefined), the survivor count was 3 of 6 on day 11 under setting [1]; 3 of 5 on day 11 under setting [2]; 0 of 6 on day 11 and 1 of 3 on day 11 under setting [3].
Take `CCCCCCCCCCCCCCCC(=O)Nc1ccn(C2OC(CO)C(O)C2O)c(=O)n1` (centres undefined): the survivor count is 3 of 6 on day 11 (dose: 600.0 mg/kg/injection, schedule: Q04DX003 (sc), vehicle: water); 0 of 6 on day 11 (dose: 1200.0 mg/kg/injection, schedule: Q04DX003 (sc), vehicle: water); 0 of 6 on day 11 (dose: 2400.0 mg/kg/injection, schedule: Q04DX003 (sc), vehicle: water).
With `COc1cc2cc(c1Cl)N(C)C(=O)CC(OC(=O)C(C)C)C1(C)OC1C(C)C1CC(O)(NC(=O)O1)C(OC)/C=C/C=C(C)C2` (centres undefined), the survivor count runs as follows: under setting [1], 0 of 2 on day 11; (dose: 50.0 micrograms/kg/injection, schedule: Q01DX010 (sc), vehicle: saline + alcohol) 1 of 3 on day 11; under setting [2], 1 of 3 on day 11; under setting [3], 0 of 3 on day 11.
In the case of `Nc1ccccc1N`, where the note is “dose: 50.0 mg/kg/injection, schedule: Q01DX010 (sc), vehicle: Klucel (hydroxypropylcellulose) (HPC)”, the T/C was 125 % of control. In addition, the survivor count by setting is: (dose: 400.0 mg/kg/injection, schedule: Q01DX010 (sc), vehicle: Klucel (hydroxypropylcellulose) (HPC)) 0 of 3 on day 11; (dose: 800.0 mg/kg/injection, schedule: Q01DX010 (sc), vehicle: Klucel (hydroxypropylcellulose) (HPC)) 0 of 3 on day 11.
Turning to `CCN(CC)CCCC(C)Nc1c2ccc(Cl)cc2nc2ccc(OC)cc12` (centres undefined), the survivor count is given as 0 of 3 on day 11 (dose: 200.0 mg/kg/injection, schedule: Q01DX010 (sc), vehicle: saline with Tween-80) and 0 of 2 on day 11 (dose: 400.0 mg/kg/injection, schedule: Q01DX010 (sc), vehicle: saline with Tween-80).
Take `CN(C)c1ccc2c(N(C)C)cc(N(C)C)nc2c1`: the survivor count (dose: 150.0 mg/kg/injection, schedule: Q04DX003 (sc), vehicle: Klucel (hydroxypropylcellulose) (HPC)) is recorded as 0 of 6 on day 11.
Regarding `COc1cccc2c1C(=O)c1c(O)c3c(c(O)c1C2=O)C[C@@](O)(C(C)=O)C[C@@H]3OC1CC(N(C)C)C(O)C(C)O1` (some centres undefined), the survivor count is recorded as 0 of 3 on day 11 (dose: 8.0 mg/kg/injection, schedule: Q01DX010 (sc), vehicle: water) and 0 of 3 on day 11 (dose: 16.0 mg/kg/injection, schedule: Q01DX010 (sc), vehicle: water).
For the molecule `CCOC1=Cc2c(oc3c(C(C)(C)C)cc(OCC)cc23)OC(C(C)(C)C)=C1`, the T/C is 91, 92, 106, 107 % of control (dose: 37.5 mg/kg/injection, schedule: Q04DX003 (sc), vehicle: saline with Tween-80); 74, 94, 118, 132 % of control (dose: 75.0 mg/kg/injection, schedule: Q04DX003 (sc), vehicle: saline with Tween-80); 55, 64, 123, 149 % of control (dose: 150.0 mg/kg/injection, schedule: Q04DX003 (sc), vehicle: saline with Tween-80); 97, 99, 102, 112 % of control (dose: 300.0 mg/kg/injection, schedule: Q04DX003 (sc), vehicle: saline with Tween-80).
Regarding `Brc1c(NC2=NCCN2)ccc2nccnc12`, the survivor count is, setting by setting: (dose: 800.0 mg/kg/injection, schedule: Q04DX003 (sc), vehicle: saline) 2 of 6 on day 11; (dose: 1600.0 mg/kg/injection, schedule: Q04DX003 (sc), vehicle: saline) 0 of 6 on day 11.
Turning to `N/C=N/O`, the survivor count (dose: 800.0 mg/kg/injection, schedule: Q01DX010 (sc), vehicle: saline) is 0 of 3 on day 11.
As to `O=C1C(=O)c2cccnc2-c2ncccc21`, the T/C (dose: 10.0 mg/kg/injection, schedule: Q04DX003 (sc), vehicle: Klucel (hydroxypropylcellulose) (HPC)) is 137 % of control. Also, the survivor count reads like this: (dose: 40.0 mg/kg/injection, schedule: Q04DX003 (sc), vehicle: Klucel (hydroxypropylcellulose) (HPC)) 3 of 6 on day 11; (dose: 80.0 mg/kg/injection, schedule: Q04DX003 (sc), vehicle: Klucel (hydroxypropylcellulose) (HPC)) 0 of 6 on day 11.
`C[C@H](N)C(=O)N[C@@H]1[C@H]2C(=C(O)C[C@@H](O)[C@@H]2O)C(=O)O[C@]1(C)C(Cl)Cl`: the T/C is 130 % of control (dose: 0.75 mg/kg/injection, schedule: Q04DX003 (sc), vehicle: Klucel (hydroxypropylcellulose) (HPC)) and 140 % of control [5 of 6 alive on day 11] (dose: 3.0 mg/kg/injection, schedule: Q04DX003 (sc), vehicle: Klucel (hydroxypropylcellulose) (HPC)).
Consider `Nc1ccc(C(OC(=O)c2cc3ccccc3c(Cc3c(O)c(C(=O)OC(c4ccc(N)cc4)(c4ccc(N)cc4)c4ccc(N)cc4)cc4ccccc34)c2O)(c2ccc(N)cc2)c2ccc(N)cc2)cc1`, for which the survivor count (dose: 576.0 mg/kg/injection, schedule: Q04DX003 (sc), vehicle: saline with Tween-80) was 3 of 6 on day 11.
`COC1=C(NC(C)=O)C(=O)c2nc(-c3nc(C(=O)O)c(C)c(-c4ccc(OC)c(OC)c4O)c3N)ccc2C1=O`: the survivor count runs as follows: (dose: 200.0 mg/kg/injection, schedule: Q04DX003 (sc), vehicle: Klucel (hydroxypropylcellulose) (HPC)) 3 of 6 on day 11; (dose: 400.0 mg/kg/injection, schedule: Q04DX003 (sc), vehicle: Klucel (hydroxypropylcellulose) (HPC)) 3 of 6 on day 11.
For the molecule `O=C(NC(Cc1ccc(I)cc1)C(=O)O)c1ccc(Br)cc1` (centres undefined), the survivor count by setting is: (dose: 150.0 mg/kg/injection, schedule: Q04DX003 (ip), vehicle: sodium bicarbonate) 1 of 6 on day 11; (dose: 300.0 mg/kg/injection, schedule: Q04DX003 (ip), vehicle: sodium bicarbonate) 0 of 6 on day 11; (dose: 600.0 mg/kg/injection, schedule: Q04DX003 (ip), vehicle: sodium bicarbonate) 0 of 6 on day 11.
Take `Cc1c2c(ccc3ccccc32)c[n+]2ccccc12`: the survivor count (dose: 25.0 mg/kg/injection, schedule: Q01DX010 (sc), vehicle: saline) is given as 0 of 3 on day 11.
For `CCN(C)N=Nc1ccc(C(N)=O)cc1`, the survivor count is, setting by setting: (dose: 600.0 mg/kg/injection, schedule: Q04DX003 (sc), vehicle: Klucel (hydroxypropylcellulose) (HPC)) 0 of 6 on day 11; (dose: 1200.0 mg/kg/injection, schedule: Q04DX003 (sc), vehicle: Klucel (hydroxypropylcellulose) (HPC)) 0 of 6 on day 11.
